Taken from: PubChem BioAssay AID504791 (Drosophila RNAi Screening Center, 2011)

Purpose: 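Genes of the fly required for silencing by miRNA, siRNA or endo-siRNA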 (primary screen)
Cell system: Drosophila S2-derived reporter cells
Reagent: long dsRNA against Drosophila genes, about 150-250 ng dsRNA per well (siRNA assay); about 80-120 ng (miRNA assay)
Timing: about 5 days (siRNA assay); about 4 days (miRNA assay)
Conditions: copper sulfate induction of reporters: 25 µM (siRNA assay); 200 mM stated (miRNA assay), 1-2 days before reading
Detection: 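Dual luciferase assay: Renilla to firefly signal ratio in each well, scaled to the mean ratio of its plate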
Call rule: 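First-pass picks had plate-scaled ratios over 1.5 for the siRNA assay, over 1.6 for the miRNA assay, or under 0.6; two distinct dsRNAs had to score alike on retest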
In all, the deposit lists about 23,000 reagents; shown is a random part of those with a known target gene and a result. In the full data, 199 (0.86%) are marked active. 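Plate-scaled ratios behind the calls are not deposited; printed light signals are raw; many rows marked increased or decreased are still called inactive.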 The record does not give: the direction of the score.

After knock-down of CG34015 [DRSC19140] the results were stable siRNA reporter change reporter ratio raised past the hit cutoff; stable assay Renilla, run 1 (luminescence) = 2155; stable assay firefly, run 1 (luminescence) = 79760; inactive.
For CG17109 [DRSC15172] the deposit lists stable assay Renilla, run 1 (luminescence) = 6288; stable assay firefly, run 1 (luminescence) = 3.11e5; inactive.
Against mRpS34 [DRSC09918], the values are stable assay Renilla, run 1 (luminescence) = 7160; stable assay firefly, run 1 (luminescence) = 4.12e5; inactive.
Obp19c [DRSC20528] scored stable assay Renilla, run 1 (luminescence) = 6470; stable assay firefly, run 1 (luminescence) = 4.99e5; inactive.
After knock-down of ND-B17.2 [DRSC00577], the record shows stable assay Renilla, run 1 (luminescence) = 6731; stable assay firefly, run 1 (luminescence) = 4.00e5; inactive.
For Diedel [DRSC14317], the entry reads stable assay Renilla, run 1 (luminescence) = 4867; stable assay firefly, run 1 (luminescence) = 3.84e5; inactive.
With knock-down of Smyd5 [DRSC15483] the results were stable assay Renilla, run 1 (luminescence) = 8318; stable assay firefly, run 1 (luminescence) = 4.61e5; inactive.
Against CG18538 [DRSC06765], the entry reads stable assay Renilla, run 1 (luminescence) = 8499; stable assay firefly, run 1 (luminescence) = 3.41e5; inactive.
After knock-down of CG7600 [DRSC09681], the screen gave miRNA reporter change reporter ratio lowered past the hit cutoff; stable assay Renilla, run 1 (luminescence) = 6678; stable assay firefly, run 1 (luminescence) = 4.53e5; inactive.
With knock-down of CG30479 [DRSC06735], the record shows stable assay Renilla, run 1 (luminescence) = 7035; stable assay firefly, run 1 (luminescence) = 4.17e5; inactive.
l(1)G0469 [DRSC19412] scored stable assay Renilla, run 1 (luminescence) = 8250; stable assay firefly, run 1 (luminescence) = 6.71e5; inactive.
With knock-down of l(1)G0469 [DRSC19462], the record shows stable assay Renilla, run 1 (luminescence) = 5371; stable assay firefly, run 1 (luminescence) = 4.34e5; inactive.
CG42260 [DRSC03953] gave stable assay Renilla, run 1 (luminescence) = 4979; stable assay firefly, run 1 (luminescence) = 2.95e5; inactive.
Against CG42260 [DRSC04172], the values are stable assay Renilla, run 1 (luminescence) = 5823; stable assay firefly, run 1 (luminescence) = 3.20e5; inactive.
For CG42260 [DRSC04385], the entry reads stable assay Renilla, run 1 (luminescence) = 6666; stable assay firefly, run 1 (luminescence) = 3.73e5; inactive.
Zip102B [DRSC17155] showed stable assay Renilla, run 1 (luminescence) = 4268; stable assay firefly, run 1 (luminescence) = 4.53e5; inactive.
After knock-down of RpS9 [DRSC11273] the results were miRNA reporter change reporter ratio lowered past the hit cutoff; stable assay Renilla, run 1 (luminescence) = 6724; stable assay firefly, run 1 (luminescence) = 3.03e5; active.
Depletion of Ilp1 [DRSC10174] resulted in: stable assay Renilla, run 1 (luminescence) = 8158; stable assay firefly, run 1 (luminescence) = 3.76e5; inactive.
With knock-down of LManVI [DRSC03224], the record shows stable assay Renilla, run 1 (luminescence) = 7306; stable assay firefly, run 1 (luminescence) = 4.31e5; inactive.
After knock-down of CG31473 [DRSC15443] the results were stable assay Renilla, run 1 (luminescence) = 6934; stable assay firefly, run 1 (luminescence) = 4.50e5; inactive.
CG10527 [DRSC04078] showed stable assay Renilla, run 1 (luminescence) = 50926; stable assay firefly, run 1 (luminescence) = 6.43e5; inactive.
Knock-down of CG2321 [DRSC15439] gave: stable assay Renilla, run 1 (luminescence) = 8227; stable assay firefly, run 1 (luminescence) = 5.11e5; inactive.
For CG14253 [DRSC14748] the deposit lists stable assay Renilla, run 1 (luminescence) = 6624; stable assay firefly, run 1 (luminescence) = 4.18e5; inactive.
Fim [DRSC20243] showed stable assay Renilla, run 1 (luminescence) = 9058; stable assay firefly, run 1 (luminescence) = 4.71e5; inactive.
Against Ythdf [DRSC16036], the entry reads stable assay Renilla, run 1 (luminescence) = 5812; stable assay firefly, run 1 (luminescence) = 2.44e5; inactive.
For Ythdf [DRSC16037] the deposit lists stable assay Renilla, run 1 (luminescence) = 6287; stable assay firefly, run 1 (luminescence) = 2.73e5; inactive.
With knock-down of abd-A [DRSC13179], the record shows stable assay Renilla, run 1 (luminescence) = 3508; stable assay firefly, run 1 (luminescence) = 3.02e5; inactive.
Depletion of abd-A [DRSC16897] gave: stable siRNA reporter change reporter ratio raised past the hit cutoff; miRNA reporter change reporter ratio raised past the hit cutoff; stable assay Renilla, run 1 (luminescence) = 6238; stable assay firefly, run 1 (luminescence) = 2.24e5; inactive.
Silencing of abd-A [DRSC23013] gave: stable assay Renilla, run 1 (luminescence) = 3415; stable assay firefly, run 1 (luminescence) = 2.80e5; inactive.

Active calls, of those listed so far:
RpS9 [DRSC11273] → miRNA reporter change: reporter ratio lowered past the hit cutoff; stable assay Renilla, run 1 (luminescence): 6724; stable assay firefly, run 1 (luminescence): 3.03e5; activity call: active
